# Laboratory results as given in PubChem BioAssay AID540303 (National Center for Advancing Translational Sciences (NCATS), 2011).
# Out of some 330,000 compounds screened, about 1,000 (0.3%) were called active. The inconclusive results got no clear call from the source; some entries with a clear call stand among them for comparison. Calls come from the whole dose curve; as a rule, active = well fitted inhibition curve with a large enough effect; inconclusive = small, poorly fitted or top-dose-only effect; inactive = no such curve, though single readings can be large or run the other way; tested in mouse RAW 264.7 cells. Potencies beside an inconclusive call are fits to weak or partial responses and may not hold up.
# Test: qHTS for Inhibitors of Cell Surface uPA Generation; note: nearly all actives have a fitted effect of over 55% in size
# Conditions: cell surface uPA generation assay; series mostly up to 38.3 µM; activity change, negative = inhibition: at the top concentration
# Outline: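 Murine RAW 264.7 cells are treated for 24 h with compound up to 38.3 uM final. Cell ATP, measured by ATP-Lite, remains high if blocking the uPA cascade prevents LF from reaching the cytoplasm.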
# % is set by controls: 0 for no effect and ±100 for the full control effect; potency is the fitted concentration of half-maximal effect.
SMILES,Potency,"activity change, negative = inhibition"
O=C1N[C@H](Cc2ccccc2)COC(=O)[C@H](Cc2ccc(F)cc2)CC/C=C/C[C@H]1CC(=O)N(CCO)Cc1ccccc1,"inconclusive: 12.6 µM [inhibitor, single point]",–
O=c1[nH]c2ccccc2n1C1CCN(CCCC(c2ccc(F)cc2)c2ccc(F)cc2)CC1,"inconclusive: 12.6 µM [inhibitor, single point]",–
Oc1ccc(-c2cn3ccccc3n2)cc1O,"inconclusive: 3.16 µM [inhibitor, single point]",–
Brc1ccc2c(c1)C(OC1CN3CCC1CC3)c1ccccc1CS2 (stereo unspecified),"inconclusive: 14.1 µM [inhibitor, partial curve, poor fit]",–
CON(C)C(=O)Nc1ccc(Cl)cc1,–,inactive: 0.468%
COC(=O)C1=C(c2cccc(OCc3ccccc3)c2)C[C@@H]2CC[C@H]1N2C(=O)NCc1ccc(OC)cc1,"inconclusive: 11.2 µM [inhibitor, single point]",–
COC(=O)C1=C(c2cccc(OCc3ccccc3)c2)C[C@@H]2CC[C@H]1N2C(=O)NCc1cccc(F)c1,"inconclusive: 12.6 µM [inhibitor, single point]",–
Fc1ccc(C[n+]2c(-c3ccccc3)cc(-c3ccccc3)cc2-c2ccccc2)cc1,active: 8.91 µM,–
COc1cc(CNc2ccc3[nH]c(=O)[nH]c3c2)ccc1OCc1ccccc1,"inconclusive: 10 µM [inhibitor, partial curve]",–
O=C(NCc1ccccc1)c1onc(CSc2ccccc2)c1C(=O)NCC1CC1,"inconclusive: 12.6 µM [inhibitor, single point]",–
Cc1ccc(S(=O)(=O)Nc2ccc3c(c2)C(=O)N([C@H](C)CO)C[C@H](C)[C@@H](CN(C)Cc2ccc(-c4ccccc4)cc2)O3)cc1,"inconclusive: 10 µM [inhibitor, single point]",–
COC(=O)c1c(C)n(Cc2ccccc2)c2ccc(O)cc12,–,inactive: 3.5%
CCN(CC)c1ccc(N=Cc2c(O)[nH]c(=O)[nH]c2=O)cc1,"inconclusive: 6.31 µM [inhibitor, partial curve]",–
COC(=O)C1=C(C(=O)OC)[C@@H]2N(Cc3ccccc3)c3ccccc3[C@@]23C[C@@H](C(=O)OC)N(C(=O)c2cccs2)C3=N1,"inconclusive: 12.6 µM [inhibitor, single point]",–
CC(=O)c1sc(NC(=O)CCS(=O)(=O)c2ccc(C)cc2)nc1C,active: 11.2 µM,–
CCC(C)Sc1cc(-c2nc3ccccn3c2NC2CCCCC2)ccc1OC (stereo unspecified),"inconclusive: 12.6 µM [inhibitor, single point]",–
O=c1cc(C(F)(F)F)c2cc3c4c(c2o1)CCCN4CCC3,–,inactive: -2.64%
COC(=O)C1=C(c2ccc(F)cc2OCc2ccccc2)C[C@@H]2CC[C@H]1N2C(=O)NCc1ccc2c(c1)OCO2,"inconclusive: 12.6 µM [inhibitor, single point]",–
COC(=O)c1cc2ccsc2n1CC(=O)Nc1cc(Cl)ccc1OC,"inconclusive: 4.47 µM [inhibitor, partial curve]",–
CCC(C)n1c(O)c(/C=N/Nc2ccccc2)c(=O)[nH]c1=S (stereo unspecified),–,inactive: 3.07%
COC(=O)C1=C(c2ccc(F)cc2OCc2ccccc2)C[C@@H]2CC[C@H]1N2C(=O)NCc1ccc(C(C)(C)C)cc1,"inconclusive: 12.6 µM [inhibitor, single point]",–

# Record cards (already shown). Order of values: Potency	activity change, negative = inhibition
# CCC(C)n1c(O)c(/C=N/Nc2ccccc2)c(=O)[nH]c1=S (stereo unspecified) reads –	inactive: 3.07%
# O=c1[nH]c2ccccc2n1C1CCN(CCCC(c2ccc(F)cc2)c2ccc(F)cc2)CC1 reads inconclusive: 12.6 µM [inhibitor, single point]	–
# CON(C)C(=O)Nc1ccc(Cl)cc1 reads –	inactive: 0.468%

# (listing goes on)

SMILES,Potency,"activity change, negative = inhibition"
COc1cccc(-c2ccc(NC(=O)C3CCCN(Cc4ccco4)C3)cc2)c1 (stereo unspecified),"inconclusive: 11.2 µM [inhibitor, single point]",–
Cc1c(CCOC(=O)CC23CC4CC(CC(C)(C4)C2)C3)sc[n+]1CC(=O)c1ccccc1,"inconclusive: 28.2 µM [inhibitor, single point]",–
C#CCOCCOCCOCCNc1nc(N2CCN(C(=O)CCCCCCCCCCNC(=O)[C@H](CCCCN)n3cc(C[C@@H](C)CC)nn3)CC2)nc(N2CCN(C(=O)CCCCCCCCCCNC(=O)[C@H](CCCCN)n3cc(C[C@@H](C)CC)nn3)CC2)n1,"inconclusive: 12.6 µM [inhibitor, partial curve, poor fit]",–
Cc1nc2ccccc2c(=O)n1-c1ccc(F)cc1F,–,inactive: 0.631%
O=C(O)C1C2CCC(O2)C1C(=O)Nc1cccc(Br)c1 (stereo unspecified),active: 11.2 µM,–
CCOc1cccc(CNCCc2c(C)[nH]c3ccc(OC(F)(F)F)cc23)c1O,"inconclusive: 7.94 µM [inhibitor, single point]",–
C[C@@H]1CN([C@@H](C)CO)C(=O)c2cc(NC(=O)CCC(F)(F)F)ccc2O[C@H]1CN(C)Cc1ccc(Cl)c(Cl)c1,"inconclusive: 31.6 µM [inhibitor, partial curve, poor fit]",–
CC(C)c1ccc2c(c1)c(SC(C)(C)C)c(CC(C)(C)C(=O)O)n2Cc1ccc(Cl)cc1,"inconclusive: 12.6 µM [inhibitor, single point]",–
CCCNC(=O)c1ccc2c(=O)c(O)c(-c3ccsc3)[nH]c2c1,"inconclusive: 14.1 µM [inhibitor, single point]",–
CC(C)(C)c1ccc(NC(=O)NCc2ccco2)cc1,"inconclusive: 10 µM [inhibitor, partial curve]",–
CC[n+]1ccccc1/C=C/c1ccc(N(C)C)cc1,"inconclusive: 3.16 µM [inhibitor, partial curve]",–
COc1ccccc1NC(=O)N1C[C@@H]2C[C@@H](C1)c1cccc(=O)n1C2,"inconclusive: 4.47 µM [inhibitor, single point]",–
C[C@]12CC[C@H](O)CC1=CCC1C2CC[C@@]2(C)C1C[C@@H](O)[C@@H]2O (stereo partly specified),–,inactive: 4.69%
O=c1cc(-c2ccc(O)c(O)c2)oc2cc(O)cc(O)c12,"inconclusive: 7.94 µM [inhibitor, partial curve, poor fit]",–
CCOC(=O)c1ccsc1NC(=O)CCS(=O)(=O)c1ccccc1,"inconclusive: 10 µM [inhibitor, partial curve, poor fit]",–
O=C(c1ccccc1F)c1cn(CC(=O)N2CCCC2)c2ccccc12,–,inactive: -1.18%
CCc1cccc(NC(=O)Cn2c(=O)oc3cc(S(=O)(=O)N4CCOCC4)ccc32)c1,"inconclusive: 4.47 µM [inhibitor, single point]",–
COC(=O)C1=C(c2ccc(F)cc2OCc2ccccc2)C[C@@H]2CC[C@H]1N2C(=O)NCc1ccc([N+](=O)[O-])cc1,"inconclusive: 4.47 µM [inhibitor, partial curve]",–
O=C(CSC(=S)N1CCCCC1)c1c(F)cccc1F,"inconclusive: 10 µM [inhibitor, partial curve, poor fit]",–
Cc1c(C(=O)OCC(C)C)[nH]c2c1C(=O)CC(c1ccco1)C2 (stereo unspecified),"inconclusive: 0.891 µM [inhibitor, full curve, poor fit]",–
Clc1ccc(COC(Cn2ccnc2)c2ccc(Cl)cc2Cl)c(Cl)c1 (stereo unspecified),"inconclusive: 12.6 µM [inhibitor, single point]",–

SMILES,Potency,"activity change, negative = inhibition"
O=C(Nc1ccccc1)c1c(O)[nH]c(=S)[nH]c1=O,"inconclusive: 2.51 µM [inhibitor, partial curve]",–
COC(=O)C1=C(c2ccc3ccccc3c2)C[C@@H]2CC[C@H]1N2C(=O)NC1Cc2ccccc2C1,"inconclusive: 12.6 µM [inhibitor, single point]",–
Cc1ccc(NS(=O)(=O)c2cccc(C(=O)NC3CCN(Cc4ccccc4)CC3)c2)c(C)c1,"inconclusive: 14.1 µM [inhibitor, partial curve, poor fit]",–
OC1(CN2CCOCC2)C2CC3CC(C2)CC1C3 (stereo unspecified),–,inactive: 3.74%
O=C1NC(=O)C(=Cc2coc3ccc(O)cc3c2=O)C(=O)N1,–,inactive: -18%
CC[N+](C)(CC)CCCCOc1ccc2c(c1)C(=O)c1cc(OCCCC[N+](C)(CC)CC)ccc1-2,"inconclusive: 1.41 µM [inhibitor, full curve]",–
COC(=O)C1=C(c2ccc(OCc3ccccc3)cc2)C[C@@H]2CC[C@H]1N2C(=O)NCc1cccc(C(F)(F)F)c1,"inconclusive: 8.91 µM [inhibitor, single point]",–
CN1CCN(Cc2ccc3ccccc3c2)CC1,–,inactive: 1.78%
COc1cc(C(C)=O)ccc1OC(=O)N(C)c1ccccc1,–,inactive: 9.75%
O=Cc1ccc(O)c(O)c1,"inconclusive: 5.62 µM [inhibitor, partial curve, poor fit]",–
COc1cc(C(CCN2CCCC(C)C2)c2c(OC)cc(OC)c3c(-c4ccccc4)cc(=O)oc23)cc(OC)c1OC (stereo unspecified),"inconclusive: 11.2 µM [inhibitor, single point]",–
Cn1cc(C=C2C(=O)NC(=O)NC2=O)c2ccccc21,–,inactive: -5.83%
CS(=O)(=O)c1ccccc1C(=O)N1CCN(S(=O)(=O)c2ccc(C3CCCCC3)cc2)CC1,"inconclusive: 12.6 µM [inhibitor, single point]",–
CC(=O)c1cn(CCCOc2ccccc2)c2ccccc12,"inconclusive: 12.6 µM [inhibitor, single point]",–
FC(F)(F)c1cnc(NNC(=S)Nc2cccnc2)c(Cl)c1,"inconclusive: 12.6 µM [inhibitor, single point]",–
C=C1[C@@H](O)[C@H](Cc2ccccc2)N(Cc2ccccc2Br)S1(=O)=O,active: 10 µM,–
Clc1ccc(C[n+]2c(-c3ccccc3)cc(-c3ccccc3)cc2-c2ccccc2)cc1,"inconclusive: 12.6 µM [inhibitor, single point]",–
Oc1ccc(CCNc2ncnc3ccc(Cl)cc23)cc1,"inconclusive: 3.98 µM [inhibitor, partial curve]",–
COC(=O)C1=C(c2cc3ccccc3o2)C[C@@H]2CC[C@H]1N2C(=O)N1CCOCC1,"inconclusive: 5.01 µM [inhibitor, partial curve, poor fit]",–
